The results are deposited in PubChem (AID912; NCATS, 2007).

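Uptake of anthrax lethal toxin into cultured cells, read by FRET (460/530 nm ratio) and reported from the 460 nm channel; the cell line is not named here. Each compound was tested as a concentration series from about 0.0005 to 40 µM. The number is the fitted AC50 of the 460 nm signal alone; lower values mean a more potent effect. A falling signal goes with compounds filed as inhibitors or cytotoxic, a rising one with activators or fluorescent compounds (inferred from the filed classes).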

Values are in nM. Common to all entries: measured here: 460 nm channel. This is a side read-out of the assay, for part of the compounds, not drawn at random. Potencies fitted to partial, single-point or poorly fitting curves are rough. The first word of each remark tells which way the curve ran; it can be opposite to the aim of the assay.

| # | compound | AC50 (nM) | curve |
|---|---|---|---|
| 1 | `O=C(c1ccco1)N1CCC2(CC1)CN(Cc1ccncc1)C2` | 5012 | falling, partial curve |
| 2 | `C=CCn1c(N)cc(=O)nc1SCC(=O)N1CCN(c2ccc(F)cc2)CC1` | 10000 | rising, single point |
| 3 | `O=C(COc1cccc(OC(F)F)c1)Nc1ccc(SC(F)F)cc1` | 12589 | falling, single point |
| 4 | `CCCCn1c(SCC(=O)NCc2ccco2)nnc1-c1ccoc1C` | 7.943 | falling, full curve |
| 5 | `CC(=O)NC12CC3CC(C1)CC(C(=O)OCC(=O)NC(=O)c1cccn1C)(C3)C2` | 5012 | rising, single point |
| 6 | `Cc1nonc1NC(=O)CSc1nnc(-c2ccoc2C)n1CC(C)C` | 15848 | falling, partial curve |
| 7 | `CCN1CCCC1CNC(=O)c1cc2c(-c3ccc(Cl)cc3)nn(C)c2s1` (stereo not given) | 7943 | falling, partial curve |
| 8 | `O=c1cc(-c2c(F)c(F)c(F)c(F)c2F)oc2c(F)c(F)c(F)c(F)c12` | 3162 | falling, full curve |
| 9 | `CCc1c(C)c2cc(Cl)c(O)c(CN(C)C)c2oc1=O` | 12589 | rising, single point |
| 10 | `CN1CCN(CC#CCn2c3ccccc3c3ccccc32)CC1` | 631 | falling, full curve, poor fit |
| 11 | `Cc1[nH]n(-c2ccccc2)c(=O)c1S(=O)(=O)c1ccccc1` | 12589 | falling, partial curve |
| 12 | `O=C(Nc1cccc(Cl)c1)c1ccc2c(=O)n3c(nc2c1)CCCCC3` | 12589 | falling, single point |
| 13 | `c1ccc2sc(Cc3nnc4n3CCCCC4)nc2c1` | 7.943 | falling, full curve |
| 14 | `O=C(C(Cc1ccccc1)n1cccc1)N1CCc2ccccc21` (stereo not given) | 15848 | falling, single point |
| 15 | `CCCCCC(=O)Nc1cccc(-c2nc3ncccc3o2)c1` | 31622 | falling, single point |
| 16 | `Cc1c(C(=O)NCc2ccc3c(c2)OCO3)oc2ccc(S(=O)(=O)N3CCCCCC3)cc12` | 15848 | falling, single point |
| 17 | `CN(C)CCCn1cc(C2=C(c3c[nH]c4ccccc34)C(=O)NC2=O)c2ccccc21` | 631 | falling, full curve |
| 18 | `Cc1cccc2cc(CN(CCc3ccccc3)C(=O)N3CCOCC3)c3nnnn3c12` | 5012 | rising, single point |
| 19 | `c1nc(NC2CCNCC2)c2cc(-c3ccc4c(c3)OCO4)ccc2n1` | 19952 | falling, single point |
| 20 | `CCN1CCN(CCNC(=O)C2CCCN(Cc3nc(-c4cccc(Cl)c4)oc3C)C2)CC1` (stereo not given) | 5012 | falling, partial curve |
| 21 | `CC(C)(C)c1cc(O)c(C(C)(C)C)cc1O` | 199.5 | falling, full curve, poor fit |
| 22 | `C1CCN(c2nc(N3CCCC3)nc(N3CCNCC3)n2)C1` | 12589 | rising, partial curve |
| 23 | `O=S(=O)(c1cccc(S(=O)(=O)N2CCCC2)c1)c1cccc(S(=O)(=O)N2CCCC2)c1` | 12589 | falling, partial curve |
| 24 | `CCC1(C)Cc2c(sc3c2c2ncnn2c2nnc(SCC(=O)NCc4ccco4)n32)CO1` (stereo not given) | 3981 | rising, partial curve |
| 25 | `O=C1CS/C(=C\S(=O)(=O)c2ccc(Cl)cc2)N1` | 10000 | rising, single point |
| 26 | `Cc1ccc(-c2nnc3sc(CCc4ccccc4)nn23)cc1` | 3162 | rising, full curve, poor fit |
| 27 | `CCCCC(CC)COC(=O)c1ccccc1C(=O)OCC(CC)CCCC` (stereo not given) | 12589 | falling, partial curve |
| 28 | `CN1CCN(c2ncc3nc(-c4ccc(Cl)cc4)c(=O)n(CCC#N)c3n2)CC1` | 1995 | rising, full curve |
| 29 | `O=C(c1ccco1)N1CCN(C(=O)C2CCN(S(=O)(=O)Cc3ccccc3)CC2)CC1` | 5012 | rising, single point |
| 30 | `CCO/C=C1\C(=O)N(c2ccccc2)C(=O)c2ccccc21` | 6310 | rising, partial curve |
| 31 | `Nn1c(SC/C=C/c2ccccc2)nnc1-c1ccccn1` | 12589 | rising, partial curve |
| 32 | `COc1ccc(Cc2nn3c(Cn4nnc5ccccc54)nnc3s2)cc1` | 2512 | rising, full curve, poor fit |
| 33 | `N=c1c(C(=O)NCc2ccco2)cc2c(=O)n3ccccc3nc2n1Cc1ccccc1` | 15848 | rising, partial curve |
| 34 | `O=C(Oc1ccccc1)N1CCC2(CC1)CN(c1ccccc1)C2` | 5012 | falling, partial curve |
| 35 | `CCOC(=O)c1nnc2cc(-c3ccc(Br)cc3)nn2c1C` | 12589 | rising, partial curve |
| 36 | `Cn1c(CNc2ccccn2)c(C#N)c2ccccc21` | 31.62 | falling, full curve |
| 37 | `CSCCC(N=Cc1c(O)n(-c2ccc(F)cc2)c(=O)[nH]c1=O)C(=O)O` (stereo not given) | 631 | rising, full curve |
| 38 | `CCCCOCCCn1cnc2c([nH]c3cc(OC)ccc32)c1=O` | 2512 | falling, partial curve |
| 39 | `CC(=O)c1cccc(NC(=O)c2c(F)c(F)c(F)c(F)c2F)c1` | 10000 | rising, partial curve |

The first 4 entries again:

* O=C(c1ccco1)N1CCC2(CC1)CN(Cc1ccncc1)C2 : AC50 5012 nM (falling, partial curve)
* C=CCn1c(N)cc(=O)nc1SCC(=O)N1CCN(c2ccc(F)cc2)CC1 : AC50 10000 nM (rising, single point)
* O=C(COc1cccc(OC(F)F)c1)Nc1ccc(SC(F)F)cc1 : AC50 12589 nM (falling, single point)
* CCCCn1c(SCC(=O)NCc2ccco2)nnc1-c1ccoc1C : AC50 7.943 nM (falling, full curve)